{
  "source": "paper PMC7819943",
  "about": "“Rice protein-binding microarrays: a tool to detect cis-acting elements near promoter regions in rice”",
  "note": "Some of the results follow.",
  "data": [
    {"target": "T1, OsSMF1 (Oryza sativa, UniProt Q6ZLB0 1-436)", "T1 sequence": "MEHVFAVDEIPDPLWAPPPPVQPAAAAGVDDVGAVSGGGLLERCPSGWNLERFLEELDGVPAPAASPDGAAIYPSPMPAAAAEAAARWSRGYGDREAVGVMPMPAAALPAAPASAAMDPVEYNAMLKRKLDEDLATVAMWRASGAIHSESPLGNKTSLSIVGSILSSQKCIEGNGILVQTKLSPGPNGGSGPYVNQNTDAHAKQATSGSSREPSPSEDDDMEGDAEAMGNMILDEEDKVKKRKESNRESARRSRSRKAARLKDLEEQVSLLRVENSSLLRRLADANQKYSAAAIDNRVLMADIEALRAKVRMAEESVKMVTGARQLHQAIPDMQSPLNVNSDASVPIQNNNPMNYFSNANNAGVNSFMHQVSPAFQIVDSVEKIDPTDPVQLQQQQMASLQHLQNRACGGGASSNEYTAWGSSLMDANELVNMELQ", "experiment": "protein-binding microarray (RPBM); PBS, 2% BSA, 51.3 ng/ul salmon testes DNA, 50 uM zinc acetate, 200 nM TF, 25 C, 1 h; high values mean tight binding", "settings": "protein: recombinant; tags: N-terminal polyhistidine and DsRed monomer fusion (pET32a); chain copies: 2; label: CyDye5-dUTP incorporated in the synthesized complementary strand; 3' TTTTT single-stranded linker to array surface; dsDNA, one strand shown", "procedure,_shortened": "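Polyhistidine-tagged DsRed fusions of transcription factors, joined at the N-terminus, were expressed in E. coli BL21-CodonPlus and isolated on Ni–NTA. They were incubated at 200 nM for 1 h at 25 °C on a custom Agilent array, double-stranded and BSA-blocked, in PBS with 2% BSA, salmon testes DNA and 50 µM zinc acetate. The binding signal is per-feature fluorescence intensity (arbitrary units) read on an Axon 4000B scanner after washing.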", "values": [
      {"sequence": "AAGAAAAGCCTGCGGACCCTAATTCTTTTAATAGTTTGGGCGGAGTCACCTAGTGCAG", "binding signal": "26400 fluorescence intensity (a.u.)"},
      {"sequence": "GCCGCTGCGCTGGCCACCCCAGGCTCCACTCCGACGAGATCGGAGTCACCTAGTGCAG", "binding signal": "3300 fluorescence intensity (a.u.)"},
      {"sequence": "AATCCGGCCTGCCACCGTTTCGTGTACTGCGTAACCGTGCCGGAGTCACCTAGTGCAG", "binding signal": "5040 fluorescence intensity (a.u.)"},
      {"sequence": "AGTACAAATATCTGGGACCTTAGAGCATCCCATGAGCTCACGGAGTCACCTAGTGCAG", "binding signal": "3640 fluorescence intensity (a.u.)"},
      {"sequence": "GTCCTTCCCGGCGAGGATGGGGAGGGTGGCCATGTCCCCGCGGAGTCACCTAGTGCAG", "binding signal": "3590 fluorescence intensity (a.u.)"},
      {"sequence": "GTGATGTGCTCGCGTTGCGCACAGCTGCAGTCTAGCGTGGCGGAGTCACCTAGTGCAG", "binding signal": "3430 fluorescence intensity (a.u.)"},
      {"sequence": "GCGCCACGTAGACGCCACGTCAGCCAAAACCGCCCTCCATCGGAGTCACCTAGTGCAG", "binding signal": "52000 fluorescence intensity (a.u.)"},
      {"sequence": "TCCTCCTCCTCCTTAAACCCGTCACCATCGGTGGCCGTCCCGGAGTCACCTAGTGCAG", "binding signal": "3180 fluorescence intensity (a.u.)"},
      {"sequence": "GCTGATGGTTTGTGTCGGGAGGGGAGGATTGAGGATGCTTCGGAGTCACCTAGTGCAG", "binding signal": "3840 fluorescence intensity (a.u.)"},
      {"sequence": "GATAAATGACGACGCTAAATGTGTAGTTTTGTGATAAACGCGGAGTCACCTAGTGCAG", "binding signal": "3680 fluorescence intensity (a.u.)"},
      {"sequence": "TACTTATGTAAAAGGATTGATTTAAGAGAATGGTCCAAACCGGAGTCACCTAGTGCAG", "binding signal": "44100 fluorescence intensity (a.u.)"},
      {"sequence": "GCTTTGCTTCACTTACACTTACACCTCACCGTGCTCCCTCCGGAGTCACCTAGTGCAG", "binding signal": "5310 fluorescence intensity (a.u.)"},
      {"sequence": "GTGCGGTGCACTTGACACACTGCAGGATCATGCCCTCTTTCGGAGTCACCTAGTGCAG", "binding signal": "4220 fluorescence intensity (a.u.)"},
      {"sequence": "ACGCCAGCCATGTGTGTGTCTTGTCCGCGTACGTGCGCGCCGGAGTCACCTAGTGCAG", "binding signal": "3460 fluorescence intensity (a.u.)"},
      {"sequence": "ATATCCGTGAGTGGGCTACAGAAAGCCCACTCACGCATATCGGAGTCACCTAGTGCAG", "binding signal": "3150 fluorescence intensity (a.u.)"},
      {"sequence": "CCACTAGCCCAGCCCATGCCACCGCTACGTTACCTTCTCCCGGAGTCACCTAGTGCAG", "binding signal": "3300 fluorescence intensity (a.u.)"},
      {"sequence": "GGCACCGCCGTCTCGCCGTCTCTATGTACAAGTCTCTATGCGGAGTCACCTAGTGCAG", "binding signal": "3210 fluorescence intensity (a.u.)"},
      {"sequence": "GCCTCGTTTCCATCTCCGCCGCGCTCGCCGCGTTCACACTCGGAGTCACCTAGTGCAG", "binding signal": "3390 fluorescence intensity (a.u.)"},
      {"sequence": "GGTCTGGCGATGGAGCCTCCCGCCGGAGACGCCGCGCCGTCGGAGTCACCTAGTGCAG", "binding signal": "3540 fluorescence intensity (a.u.)"},
      {"sequence": "CCCAGACCCCACGTGTCCCCACTTCCCTGCGCCCTCCATGCGGAGTCACCTAGTGCAG", "binding signal": "8590 fluorescence intensity (a.u.)"},
      {"sequence": "AGTGCCCAGCGGTGCCCGTGGACTGGACCTGACGGTGACGCGGAGTCACCTAGTGCAG", "binding signal": "4230 fluorescence intensity (a.u.)"},
      {"sequence": "CCCCGACACCGCCGTCTATGGCAACCGGGACTTGGACGACCGGAGTCACCTAGTGCAG", "binding signal": "19000 fluorescence intensity (a.u.)"},
      {"sequence": "GGGCCTACGTAACGCTCGCTTCTTTGCCTCCTCGTTCCCTCGGAGTCACCTAGTGCAG", "binding signal": "3210 fluorescence intensity (a.u.)"},
      {"sequence": "TCCCCACCCATTGACGGCTGCCGTAGAGGTTTGGGTTGAGCGGAGTCACCTAGTGCAG", "binding signal": "37700 fluorescence intensity (a.u.)"},
      {"sequence": "AGAATCCAAGAAGCGTTCAGTGGTGGGAGCCGGCAGCTGTCGGAGTCACCTAGTGCAG", "binding signal": "3880 fluorescence intensity (a.u.)"},
      {"sequence": "ACCTCGGTGTGAGGAGGAGCTGCCGGTGGGTGTGGCGTGACGGAGTCACCTAGTGCAG", "binding signal": "3270 fluorescence intensity (a.u.)"},
      {"sequence": "TGGTTCGTTTCTTCAGAAATCAACCTTTTAACCAGTGGCGCGGAGTCACCTAGTGCAG", "binding signal": "6480 fluorescence intensity (a.u.)"},
      {"sequence": "CTTAGGCCAGCTGTATGCCGTGCGTGTATATAAGCACAGGCGGAGTCACCTAGTGCAG", "binding signal": "4220 fluorescence intensity (a.u.)"},
      {"sequence": "CACAATCTTGCGATCCAGCTCATGTGGCGGACGGAATGAGCGGAGTCACCTAGTGCAG", "binding signal": "3470 fluorescence intensity (a.u.)"},
      {"sequence": "AGTCCAGTTATAGGTGCTTGTGTCAACAGAGAGTCCTTTCCGGAGTCACCTAGTGCAG", "binding signal": "3710 fluorescence intensity (a.u.)"},
      {"sequence": "GGTGAAGTGCAGGATCATGGCAGATGTCACCATTGCTGCTCGGAGTCACCTAGTGCAG", "binding signal": "3880 fluorescence intensity (a.u.)"},
      {"sequence": "GTAGGAGATAATAGTTTCATAACACGTGTAAGCAGCATGTCGGAGTCACCTAGTGCAG", "binding signal": "5870 fluorescence intensity (a.u.)"},
      {"sequence": "TATACTGTATATAGGTGGCTGACGTGTGGGCCCCGATCAGCGGAGTCACCTAGTGCAG", "binding signal": "12700 fluorescence intensity (a.u.)"},
      {"sequence": "CGGAAATGATAAGGGCAGTTTCCGTCGGAACTCGAAATCGCGGAGTCACCTAGTGCAG", "binding signal": "3250 fluorescence intensity (a.u.)"},
      {"sequence": "AACTGGACGTGAGATTTTCCAAGACCCACCTTAAATGCATCGGAGTCACCTAGTGCAG", "binding signal": "27400 fluorescence intensity (a.u.)"},
      {"sequence": "CACCGTAGGGTCAATCTGGCCGTCCACGTGTCCCGCTGTGCGGAGTCACCTAGTGCAG", "binding signal": "16400 fluorescence intensity (a.u.)"},
      {"sequence": "GCTTGTTTAGGTCCCAATCTTTTCTGTCATTCCAAAGACGCGGAGTCACCTAGTGCAG", "binding signal": "17500 fluorescence intensity (a.u.)"},
      {"sequence": "CCGCCAAATGTTAGCCATAAACCCTGAGCCGTTCACGTTTCGGAGTCACCTAGTGCAG", "binding signal": "3780 fluorescence intensity (a.u.)"},
      {"sequence": "CTCGCGCGACGTGGCCCCACCCAAGCGCATACGTGGCACCCGGAGTCACCTAGTGCAG", "binding signal": "18900 fluorescence intensity (a.u.)"},
      {"sequence": "CTTCGCTGCCAGTCACAACACCCATCTTCGTCGCCGCCCACGGAGTCACCTAGTGCAG", "binding signal": "4180 fluorescence intensity (a.u.)"},
      {"sequence": "AAAAGGACAAAAGGCTTTCTTTCAAGTAATTGTCATGACGCGGAGTCACCTAGTGCAG", "binding signal": "3450 fluorescence intensity (a.u.)"},
      {"sequence": "TTATTATTATTATTATTATTATTATATAACCAATATCTTTCGGAGTCACCTAGTGCAG", "binding signal": "3310 fluorescence intensity (a.u.)"}
    ]}
  ]
}
